## Library screen at single concentrations

The chains behind the UniProt entries cited, without tags or fusion partners.
UniProt P9WFT3, whole entry: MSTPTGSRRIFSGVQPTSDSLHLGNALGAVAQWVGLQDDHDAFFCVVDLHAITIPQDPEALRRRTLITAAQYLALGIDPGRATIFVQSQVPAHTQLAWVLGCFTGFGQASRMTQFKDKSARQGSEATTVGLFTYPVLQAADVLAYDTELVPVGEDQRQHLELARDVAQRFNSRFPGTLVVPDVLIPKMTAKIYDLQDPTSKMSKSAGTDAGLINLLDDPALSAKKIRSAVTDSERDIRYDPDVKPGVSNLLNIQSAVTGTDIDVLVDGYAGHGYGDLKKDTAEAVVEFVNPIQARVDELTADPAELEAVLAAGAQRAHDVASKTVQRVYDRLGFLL
UniProt P9WNZ1, whole entry: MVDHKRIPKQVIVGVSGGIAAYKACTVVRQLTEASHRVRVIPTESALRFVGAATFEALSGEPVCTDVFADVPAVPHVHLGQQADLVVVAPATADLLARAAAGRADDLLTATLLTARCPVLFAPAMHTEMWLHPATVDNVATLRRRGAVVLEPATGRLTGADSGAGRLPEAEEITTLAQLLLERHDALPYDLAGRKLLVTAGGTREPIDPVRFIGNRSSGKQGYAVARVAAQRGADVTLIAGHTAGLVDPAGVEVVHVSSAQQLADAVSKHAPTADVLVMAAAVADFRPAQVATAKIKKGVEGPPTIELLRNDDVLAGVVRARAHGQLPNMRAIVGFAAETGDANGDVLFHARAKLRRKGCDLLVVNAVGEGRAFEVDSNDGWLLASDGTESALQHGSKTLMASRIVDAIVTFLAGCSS
UniProt P9WPC5, whole entry: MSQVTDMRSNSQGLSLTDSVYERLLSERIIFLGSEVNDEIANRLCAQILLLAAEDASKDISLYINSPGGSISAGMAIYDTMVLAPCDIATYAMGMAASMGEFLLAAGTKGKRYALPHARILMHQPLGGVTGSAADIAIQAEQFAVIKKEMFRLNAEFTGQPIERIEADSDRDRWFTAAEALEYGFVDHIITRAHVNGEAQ
UniProt P9WPC3, whole entry partner: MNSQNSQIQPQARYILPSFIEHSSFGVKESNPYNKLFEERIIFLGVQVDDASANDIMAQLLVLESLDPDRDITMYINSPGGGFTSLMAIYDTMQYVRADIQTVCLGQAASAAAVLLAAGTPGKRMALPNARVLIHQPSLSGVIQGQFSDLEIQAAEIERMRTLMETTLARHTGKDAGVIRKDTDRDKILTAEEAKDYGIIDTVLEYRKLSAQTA

MtTrpRS: 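Tryptophan-tRNA ligase, Mycobacterium tuberculosis (UniProt P9WFT3). Enzyme assay of tryptophanyl-tRNA synthetase; the read-out is not stated. Concentration: 10 µM. Direction is not recorded; retested compounds ran higher, which suggests that high means inhibition. Of about 65,000 compounds tested this way, about 64 (0.098%) reached 50% or more in at least one test.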
CoaBC: 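Coenzyme A biosynthesis protein CoaBC, Mycobacterium tuberculosis (UniProt P9WNZ1). Enzyme assay of CoaBC with a phosphate dye (Biomol Green) read at 650 nm. Concentration: 30 µM. Higher reads as stronger inhibition, judged from the few compounds that gave an IC50. Most strong results did not repeat in a second test. Of about 67,000 compounds tested this way, about 40 (0.06%) reached 50% or more in at least one test.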
ClpP1P2: 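Protease assay of ClpP1P2, read by the AMC dye that it sets free. Target: ClpP1P2, Mycobacterium tuberculosis (UniProt P9WPC5 and UniProt P9WPC3). Tested at 50 µM. Higher reads as stronger inhibition, judged from the few compounds that gave an IC50. Most other retested compounds had strongly negative values. Size under these conditions: about 69,000 compounds, about 10 of them at 50% or above in at least one test.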

Values are the deposited “Percent Effect”, in %. The record does not define 0% and 100%; most values in the screen are far below 50% and negative numbers occur (in some assays of this library far below -100). The compounds are a random part of those screened.

Compound: CC(=O)NCCCC(=O)NC1(c2ccc(Cl)c(Cl)c2)CC1
MtTrpRS: -3.216
CoaBC: -2.355
ClpP1P2: 6.721

Compound: CN(C(=O)c1cccc(C(=O)NS(C)(=O)=O)c1)c1ccccc1
MtTrpRS: 6.711
CoaBC: 7.273
ClpP1P2: -8.292

Compound: CN(C)Cc1ccc(C2CCCCN2C(=O)c2cc(C3CC3)n[nH]2)cc1 (centres unmarked)
MtTrpRS: -4.428
CoaBC: -43.86
ClpP1P2: -7.506

Compound: CCn1c(C)nnc1CN(C)C1CCN(Cc2sc(C)nc2C)C1 (centres unmarked)
MtTrpRS: -0.4397
CoaBC: 7.296
ClpP1P2: 7.748

Compound: Cn1cnc(S(=O)(=O)NCCN2CCCCCC2=O)c1Cl
MtTrpRS: -5.556
CoaBC: 2.491
ClpP1P2: -0.4904

Compound: CC(C)CC1SCC(=O)Nc2c1cnn2C(C)C (centres unmarked)
MtTrpRS: -3.819
CoaBC: -3.096
ClpP1P2: 5.139

Compound: CCc1nc(C2CCCN2Cc2nc(CCOC)no2)no1 (centres unmarked)
MtTrpRS: -1.74
CoaBC: 9.545
ClpP1P2: -5.494

Compound: O=c1c2cn[nH]c2nc(SCCN2CCCC2)n1-c1ccccc1
MtTrpRS: 1.713
CoaBC: 0.8949
ClpP1P2: -9.832

Compound: O=C(NCC(O)c1ccc(F)c(F)c1)c1cccnc1O (centres unmarked)
MtTrpRS: -2.549
CoaBC: 1.935
ClpP1P2: 1.915

Compound: Cn1cc(C(=O)N2CCSc3ccccc32)ccc1=O
MtTrpRS: 11.39
CoaBC: -1.531
ClpP1P2: -19.37

Compound: Cc1nc(C2CCN(S(C)(=O)=O)CC2)nc(N2CCCC2)c1C
MtTrpRS: -4.561
CoaBC: -4.731
ClpP1P2: 20.03

Compound: COc1cc(CC2CC(C(N)=O)=NO2)cc2c1OCO2 (centres unmarked)
MtTrpRS: 2.592
CoaBC: 2.427
ClpP1P2: -14.39

Compound: CC(CCNC(=O)N1CCC1)N(C)C(=O)OC(C)(C)C (centres unmarked)
MtTrpRS: -0.6731
CoaBC: 2.784
ClpP1P2: -12.91

Compound: CCCc1nc(C)cc(N2CCC3(CCC(=O)N(CC(N)=O)C3)CC2)n1
MtTrpRS: -4.31
CoaBC: 4.292
ClpP1P2: -6.609

Compound: COc1cc(CCC(=O)NCC2CCCN2C)ccc1OCC(F)(F)F (centres unmarked)
MtTrpRS: 2.437
CoaBC: 9.85
ClpP1P2: 1.671

Compound: N#CCCCS(=O)(=O)NC1(c2cccc(Cl)c2)CC1
MtTrpRS: 1.125
CoaBC: 2.066
ClpP1P2: -4.136

Compound: CN1CCC(NC(=O)NCc2csc(Br)c2)CC1
MtTrpRS: -4.373
CoaBC: 5.396
ClpP1P2: 0.8674

Compound: Cc1cc(C)n(C2CN(CC(=O)NC3CCS(=O)(=O)C3)C2)n1 (centres unmarked)
MtTrpRS: 0.000006
CoaBC: 2.926
ClpP1P2: -5.692

Compound: O=S(=O)(NCCC(O)c1cccs1)c1c(F)cccc1F (centres unmarked)
MtTrpRS: -3.116
CoaBC: 10.36
ClpP1P2: 4.499

Compound: CCn1cc(CN2CCCn3nc(CNS(C)(=O)=O)cc3C2)c(C)n1
MtTrpRS: 1.944
CoaBC: 2.381
ClpP1P2: -0.6388

Compound: CCN1CC(c2ccccc2)CC2(CCN(Cc3ncc[nH]3)CC2)C1 (centres unmarked)
MtTrpRS: -1.727
CoaBC: 1.104
ClpP1P2: -3.567

Compound: CN(Cc1ccsc1)C(=O)c1cccc(S(=O)(=O)NCC2CCCO2)c1 (centres unmarked)
MtTrpRS: 16.97
CoaBC: 2.389
ClpP1P2: 8.3

Compound: Cc1ccc(C)c(C(C(=O)O)N2CCCN(Cc3ccccn3)CC2)c1 (centres unmarked)
MtTrpRS: -1.587
CoaBC: -4.825
ClpP1P2: -4.38

Compound: CC(C)N1CCC(CN2CCn3nc(CNC(=O)N(C)C)cc3C2)CC1
MtTrpRS: -0.2174
CoaBC: 1.568
ClpP1P2: -9.805

Compound: CCN1CCN(C2CCN(Cc3nnc(C(C)C)o3)CC2)C1=O
MtTrpRS: -8.025
CoaBC: 4.439
ClpP1P2: -49.55

Compound: Cc1cc2n(n1)CC(CNCc1ccnc(-n3ccnc3C)c1)CN2 (centres unmarked)
MtTrpRS: -1.415
CoaBC: 10.64
ClpP1P2: 28.39

Compound: Oc1cc(C2CCNCC2)nc(-c2ccsc2)n1
MtTrpRS: -4.45
CoaBC: -17.95
ClpP1P2: -7.515

Compound: Cc1ccc(CN2CCC[C@]3(C(=O)O)CN(c4ncccn4)C[C@@H]3C2)o1
MtTrpRS: 3.882
CoaBC: 2.665
ClpP1P2: -0.1501

Compound: COCC(=O)Nc1ccc(N2CCC(OC)CC2)c(C(F)(F)F)c1
MtTrpRS: -7.401
CoaBC: -6.352
ClpP1P2: 2.624

Compound: OC(COCc1ccccc1)CN1CCC(c2ccn[nH]2)CC1 (centres unmarked)
MtTrpRS: 10.66
CoaBC: 0.5249
ClpP1P2: -3.522

Compound: Cn1ccc(CN2CCC(CO)CC2)cc1=O
MtTrpRS: -1.462
CoaBC: 8.877
ClpP1P2: 9.171

Compound: CC(=O)N1CCc2c(nc(N(C)C)nc2NC(C)Cc2cccs2)C1 (centres unmarked)
MtTrpRS: -3.846
CoaBC: 7.2
ClpP1P2: -5.059

Compound: Cc1nc(C)c(CNC(=O)N2CCc3ccccc3C2CO)s1 (centres unmarked)
MtTrpRS: -4.179
CoaBC: -1.167
ClpP1P2: -9.779

Compound: O=C(NC1CCN(CC2CC2)C1)N1CCC(OC2CCCCC2)CC1 (centres unmarked)
MtTrpRS: 1.214
CoaBC: -22.92
ClpP1P2: -3.247

Compound: O=C(NCc1cccnc1-n1cccn1)C1CC(=O)N(CC2CC2)C1 (centres unmarked)
MtTrpRS: 0.3909
CoaBC: 2.564
ClpP1P2: -9.96

Compound: CC(C)C(=O)N1CCC(c2nc(O)cc(-c3ccncc3)n2)CC1
MtTrpRS: 2.926
CoaBC: 2.778
ClpP1P2: 5.341

Compound: CCNc1nc(-c2cccnc2)c(-c2ccnc(N3CCOCC3)n2)s1
CoaBC: 4.217
ClpP1P2: 2.578

Compound: CS(=O)(=O)NCc1cnc2n1CCN(Cc1ccoc1)CC2
MtTrpRS: -3.754
CoaBC: -0.6165
ClpP1P2: -11.88

Compound: Cn1ncc2c1C(COCC1CC1)CN(Cc1ccc(F)cc1)C2 (centres unmarked)
MtTrpRS: -0.08719
CoaBC: 7.198
ClpP1P2: 4.023

The first 2 entries again:

| Compound | MtTrpRS | CoaBC | ClpP1P2 |
|---|---|---|---|
| `CC(=O)NCCCC(=O)NC1(c2ccc(Cl)c(Cl)c2)CC1` | -3.216 | -2.355 | 6.721 |
| `CN(C(=O)c1cccc(C(=O)NS(C)(=O)=O)c1)c1ccccc1` | 6.711 | 7.273 | -8.292 |

Source: ChEMBL document CHEMBL3988442, “University of Dundee, Small-Polar-MMV Screening Library” (2021).